Results are given in words; binding and its absence hold for the method and conditions named. Binding seen in cells or lysates may run through a third protein.
Molecular target: T1, Mouse Vasa Homolog (mouse (endogenous in testis germ cells)) (UniProt Q61496)
T1 sequence: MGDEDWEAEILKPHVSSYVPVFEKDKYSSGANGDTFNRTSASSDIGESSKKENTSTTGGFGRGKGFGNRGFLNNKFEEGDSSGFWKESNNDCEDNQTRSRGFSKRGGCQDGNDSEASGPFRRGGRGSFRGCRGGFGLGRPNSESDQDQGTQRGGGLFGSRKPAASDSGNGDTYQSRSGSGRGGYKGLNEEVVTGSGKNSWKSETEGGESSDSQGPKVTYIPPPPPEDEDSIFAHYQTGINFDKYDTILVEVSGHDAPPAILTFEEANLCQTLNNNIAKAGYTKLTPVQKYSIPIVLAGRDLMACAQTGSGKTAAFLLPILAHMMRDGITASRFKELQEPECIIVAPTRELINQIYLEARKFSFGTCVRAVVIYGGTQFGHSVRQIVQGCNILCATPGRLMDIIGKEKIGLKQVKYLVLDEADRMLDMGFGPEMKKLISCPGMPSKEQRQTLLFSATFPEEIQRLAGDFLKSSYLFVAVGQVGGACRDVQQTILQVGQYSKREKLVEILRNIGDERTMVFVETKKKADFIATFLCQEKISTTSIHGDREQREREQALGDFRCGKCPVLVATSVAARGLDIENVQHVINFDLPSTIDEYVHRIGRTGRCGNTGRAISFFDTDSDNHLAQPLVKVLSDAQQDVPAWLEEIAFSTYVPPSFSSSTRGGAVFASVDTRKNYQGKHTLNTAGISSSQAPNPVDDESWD
Test: co-IP; IP with anti-MVH (Abcam) on protein A Sepharose from cytoplasmic extract of P40 testis germ cells, overnight at 4°C, beads washed 3 times; Western blot with anti-MVH, anti-HuR and anti-AUF1; control rabbit IgG

Sequences of proteins named here, by UniProt entry; tags and fusion partners are left off.
UniProt Q60668: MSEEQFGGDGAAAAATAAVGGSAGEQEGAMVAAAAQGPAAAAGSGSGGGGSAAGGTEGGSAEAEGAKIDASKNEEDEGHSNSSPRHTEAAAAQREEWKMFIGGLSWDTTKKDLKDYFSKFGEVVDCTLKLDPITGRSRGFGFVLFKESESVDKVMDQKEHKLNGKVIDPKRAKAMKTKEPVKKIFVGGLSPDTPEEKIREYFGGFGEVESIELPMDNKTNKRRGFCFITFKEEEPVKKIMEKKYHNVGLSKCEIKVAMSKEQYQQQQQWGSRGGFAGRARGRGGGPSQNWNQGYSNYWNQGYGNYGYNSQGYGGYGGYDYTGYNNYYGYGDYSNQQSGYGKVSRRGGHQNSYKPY

- binding: no binding
Substance: AUF1 (from UniProt Q60668 1-355)

Reference: article PMC2659425
